Results are given in words; binding and its absence hold for the method and conditions named. Binding seen in cells or lysates may run through a third protein. Some entries that bind do so weakly or less than the wild type. Sequences can lack the tags named with a protein.
T1: Flag-tagged FL SgK223-WT (UniProt Q86YV5)
T1 sequence: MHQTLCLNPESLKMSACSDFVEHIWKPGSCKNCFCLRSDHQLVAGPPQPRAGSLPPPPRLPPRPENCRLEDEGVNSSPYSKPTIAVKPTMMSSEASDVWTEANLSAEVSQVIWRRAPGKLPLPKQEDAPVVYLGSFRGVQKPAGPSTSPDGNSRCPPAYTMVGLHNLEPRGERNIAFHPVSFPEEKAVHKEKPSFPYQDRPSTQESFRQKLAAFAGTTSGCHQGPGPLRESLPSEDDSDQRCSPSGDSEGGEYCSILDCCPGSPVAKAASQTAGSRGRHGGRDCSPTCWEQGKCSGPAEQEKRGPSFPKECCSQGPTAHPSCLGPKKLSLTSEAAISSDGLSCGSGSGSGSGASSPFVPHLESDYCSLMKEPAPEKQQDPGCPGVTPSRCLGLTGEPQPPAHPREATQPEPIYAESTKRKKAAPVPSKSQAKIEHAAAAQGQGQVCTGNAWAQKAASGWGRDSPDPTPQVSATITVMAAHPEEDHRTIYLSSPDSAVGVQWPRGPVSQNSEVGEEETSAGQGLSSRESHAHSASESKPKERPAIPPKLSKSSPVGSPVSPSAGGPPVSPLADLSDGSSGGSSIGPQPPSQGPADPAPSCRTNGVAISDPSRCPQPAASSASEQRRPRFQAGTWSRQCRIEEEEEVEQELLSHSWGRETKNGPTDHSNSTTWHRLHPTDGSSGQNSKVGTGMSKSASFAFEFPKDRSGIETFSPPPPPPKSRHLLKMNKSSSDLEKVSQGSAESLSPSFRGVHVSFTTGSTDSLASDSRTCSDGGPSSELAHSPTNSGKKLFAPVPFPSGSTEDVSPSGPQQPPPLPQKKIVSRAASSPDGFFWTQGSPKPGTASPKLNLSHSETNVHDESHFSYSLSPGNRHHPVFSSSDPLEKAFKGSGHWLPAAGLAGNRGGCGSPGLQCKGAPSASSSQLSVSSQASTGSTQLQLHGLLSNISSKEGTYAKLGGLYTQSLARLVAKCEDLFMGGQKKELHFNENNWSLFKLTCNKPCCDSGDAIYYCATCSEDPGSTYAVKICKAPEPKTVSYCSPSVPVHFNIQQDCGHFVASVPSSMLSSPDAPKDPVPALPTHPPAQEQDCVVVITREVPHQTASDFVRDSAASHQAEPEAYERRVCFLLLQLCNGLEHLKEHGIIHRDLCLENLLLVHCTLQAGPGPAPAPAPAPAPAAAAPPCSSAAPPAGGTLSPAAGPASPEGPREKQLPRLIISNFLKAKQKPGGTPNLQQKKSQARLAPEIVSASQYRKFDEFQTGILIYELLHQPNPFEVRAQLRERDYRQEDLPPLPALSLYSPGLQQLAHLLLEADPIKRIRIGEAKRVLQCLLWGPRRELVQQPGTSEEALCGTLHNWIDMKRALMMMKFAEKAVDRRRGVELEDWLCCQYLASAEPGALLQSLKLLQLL

B1: HA-tagged FL SgK223-WT (HEK293) (protein, UniProt Q86YV5 1-1406)
chain: MHQTLCLNPESLKMSACSDFVEHIWKPGSCKNCFCLRSDHQLVAGPPQPRAGSLPPPPRLPPRPENCRLEDEGVNSSPYSKPTIAVKPTMMSSEASDVWTEANLSAEVSQVIWRRAPGKLPLPKQEDAPVVYLGSFRGVQKPAGPSTSPDGNSRCPPAYTMVGLHNLEPRGERNIAFHPVSFPEEKAVHKEKPSFPYQDRPSTQESFRQKLAAFAGTTSGCHQGPGPLRESLPSEDDSDQRCSPSGDSEGGEYCSILDCCPGSPVAKAASQTAGSRGRHGGRDCSPTCWEQGKCSGPAEQEKRGPSFPKECCSQGPTAHPSCLGPKKLSLTSEAAISSDGLSCGSGSGSGSGASSPFVPHLESDYCSLMKEPAPEKQQDPGCPGVTPSRCLGLTGEPQPPAHPREATQPEPIYAESTKRKKAAPVPSKSQAKIEHAAAAQGQGQVCTGNAWAQKAASGWGRDSPDPTPQVSATITVMAAHPEEDHRTIYLSSPDSAVGVQWPRGPVSQNSEVGEEETSAGQGLSSRESHAHSASESKPKERPAIPPKLSKSSPVGSPVSPSAGGPPVSPLADLSDGSSGGSSIGPQPPSQGPADPAPSCRTNGVAISDPSRCPQPAASSASEQRRPRFQAGTWSRQCRIEEEEEVEQELLSHSWGRETKNGPTDHSNSTTWHRLHPTDGSSGQNSKVGTGMSKSASFAFEFPKDRSGIETFSPPPPPPKSRHLLKMNKSSSDLEKVSQGSAESLSPSFRGVHVSFTTGSTDSLASDSRTCSDGGPSSELAHSPTNSGKKLFAPVPFPSGSTEDVSPSGPQQPPPLPQKKIVSRAASSPDGFFWTQGSPKPGTASPKLNLSHSETNVHDESHFSYSLSPGNRHHPVFSSSDPLEKAFKGSGHWLPAAGLAGNRGGCGSPGLQCKGAPSASSSQLSVSSQASTGSTQLQLHGLLSNISSKEGTYAKLGGLYTQSLARLVAKCEDLFMGGQKKELHFNENNWSLFKLTCNKPCCDSGDAIYYCATCSEDPGSTYAVKICKAPEPKTVSYCSPSVPVHFNIQQDCGHFVASVPSSMLSSPDAPKDPVPALPTHPPAQEQDCVVVITREVPHQTASDFVRDSAASHQAEPEAYERRVCFLLLQLCNGLEHLKEHGIIHRDLCLENLLLVHCTLQAGPGPAPAPAPAPAPAAAAPPCSSAAPPAGGTLSPAAGPASPEGPREKQLPRLIISNFLKAKQKPGGTPNLQQKKSQARLAPEIVSASQYRKFDEFQTGILIYELLHQPNPFEVRAQLRERDYRQEDLPPLPALSLYSPGLQQLAHLLLEADPIKRIRIGEAKRVLQCLLWGPRRELVQQPGTSEEALCGTLHNWIDMKRALMMMKFAEKAVDRRRGVELEDWLCCQYLASAEPGALLQSLKLLQLL
B2: HA-tagged FL SgK223 I1243A (HEK293) (protein, UniProt Q86YV5 1-1406)
chain: MHQTLCLNPESLKMSACSDFVEHIWKPGSCKNCFCLRSDHQLVAGPPQPRAGSLPPPPRLPPRPENCRLEDEGVNSSPYSKPTIAVKPTMMSSEASDVWTEANLSAEVSQVIWRRAPGKLPLPKQEDAPVVYLGSFRGVQKPAGPSTSPDGNSRCPPAYTMVGLHNLEPRGERNIAFHPVSFPEEKAVHKEKPSFPYQDRPSTQESFRQKLAAFAGTTSGCHQGPGPLRESLPSEDDSDQRCSPSGDSEGGEYCSILDCCPGSPVAKAASQTAGSRGRHGGRDCSPTCWEQGKCSGPAEQEKRGPSFPKECCSQGPTAHPSCLGPKKLSLTSEAAISSDGLSCGSGSGSGSGASSPFVPHLESDYCSLMKEPAPEKQQDPGCPGVTPSRCLGLTGEPQPPAHPREATQPEPIYAESTKRKKAAPVPSKSQAKIEHAAAAQGQGQVCTGNAWAQKAASGWGRDSPDPTPQVSATITVMAAHPEEDHRTIYLSSPDSAVGVQWPRGPVSQNSEVGEEETSAGQGLSSRESHAHSASESKPKERPAIPPKLSKSSPVGSPVSPSAGGPPVSPLADLSDGSSGGSSIGPQPPSQGPADPAPSCRTNGVAISDPSRCPQPAASSASEQRRPRFQAGTWSRQCRIEEEEEVEQELLSHSWGRETKNGPTDHSNSTTWHRLHPTDGSSGQNSKVGTGMSKSASFAFEFPKDRSGIETFSPPPPPPKSRHLLKMNKSSSDLEKVSQGSAESLSPSFRGVHVSFTTGSTDSLASDSRTCSDGGPSSELAHSPTNSGKKLFAPVPFPSGSTEDVSPSGPQQPPPLPQKKIVSRAASSPDGFFWTQGSPKPGTASPKLNLSHSETNVHDESHFSYSLSPGNRHHPVFSSSDPLEKAFKGSGHWLPAAGLAGNRGGCGSPGLQCKGAPSASSSQLSVSSQASTGSTQLQLHGLLSNISSKEGTYAKLGGLYTQSLARLVAKCEDLFMGGQKKELHFNENNWSLFKLTCNKPCCDSGDAIYYCATCSEDPGSTYAVKICKAPEPKTVSYCSPSVPVHFNIQQDCGHFVASVPSSMLSSPDAPKDPVPALPTHPPAQEQDCVVVITREVPHQTASDFVRDSAASHQAEPEAYERRVCFLLLQLCNGLEHLKEHGIIHRDLCLENLLLVHCTLQAGPGPAPAPAPAPAPAAAAPPCSSAAPPAGGTLSPAAGPASPEGPREKQLPRLIISNFLKAKQKPGGTPNLQQKKSQARLAPEAVSASQYRKFDEFQTGILIYELLHQPNPFEVRAQLRERDYRQEDLPPLPALSLYSPGLQQLAHLLLEADPIKRIRIGEAKRVLQCLLWGPRRELVQQPGTSEEALCGTLHNWIDMKRALMMMKFAEKAVDRRRGVELEDWLCCQYLASAEPGALLQSLKLLQLL
B3: HA-tagged FL SgK223 Y1282A (HEK293) (protein, UniProt Q86YV5 1-1406)
chain: MHQTLCLNPESLKMSACSDFVEHIWKPGSCKNCFCLRSDHQLVAGPPQPRAGSLPPPPRLPPRPENCRLEDEGVNSSPYSKPTIAVKPTMMSSEASDVWTEANLSAEVSQVIWRRAPGKLPLPKQEDAPVVYLGSFRGVQKPAGPSTSPDGNSRCPPAYTMVGLHNLEPRGERNIAFHPVSFPEEKAVHKEKPSFPYQDRPSTQESFRQKLAAFAGTTSGCHQGPGPLRESLPSEDDSDQRCSPSGDSEGGEYCSILDCCPGSPVAKAASQTAGSRGRHGGRDCSPTCWEQGKCSGPAEQEKRGPSFPKECCSQGPTAHPSCLGPKKLSLTSEAAISSDGLSCGSGSGSGSGASSPFVPHLESDYCSLMKEPAPEKQQDPGCPGVTPSRCLGLTGEPQPPAHPREATQPEPIYAESTKRKKAAPVPSKSQAKIEHAAAAQGQGQVCTGNAWAQKAASGWGRDSPDPTPQVSATITVMAAHPEEDHRTIYLSSPDSAVGVQWPRGPVSQNSEVGEEETSAGQGLSSRESHAHSASESKPKERPAIPPKLSKSSPVGSPVSPSAGGPPVSPLADLSDGSSGGSSIGPQPPSQGPADPAPSCRTNGVAISDPSRCPQPAASSASEQRRPRFQAGTWSRQCRIEEEEEVEQELLSHSWGRETKNGPTDHSNSTTWHRLHPTDGSSGQNSKVGTGMSKSASFAFEFPKDRSGIETFSPPPPPPKSRHLLKMNKSSSDLEKVSQGSAESLSPSFRGVHVSFTTGSTDSLASDSRTCSDGGPSSELAHSPTNSGKKLFAPVPFPSGSTEDVSPSGPQQPPPLPQKKIVSRAASSPDGFFWTQGSPKPGTASPKLNLSHSETNVHDESHFSYSLSPGNRHHPVFSSSDPLEKAFKGSGHWLPAAGLAGNRGGCGSPGLQCKGAPSASSSQLSVSSQASTGSTQLQLHGLLSNISSKEGTYAKLGGLYTQSLARLVAKCEDLFMGGQKKELHFNENNWSLFKLTCNKPCCDSGDAIYYCATCSEDPGSTYAVKICKAPEPKTVSYCSPSVPVHFNIQQDCGHFVASVPSSMLSSPDAPKDPVPALPTHPPAQEQDCVVVITREVPHQTASDFVRDSAASHQAEPEAYERRVCFLLLQLCNGLEHLKEHGIIHRDLCLENLLLVHCTLQAGPGPAPAPAPAPAPAAAAPPCSSAAPPAGGTLSPAAGPASPEGPREKQLPRLIISNFLKAKQKPGGTPNLQQKKSQARLAPEIVSASQYRKFDEFQTGILIYELLHQPNPFEVRAQLRERDARQEDLPPLPALSLYSPGLQQLAHLLLEADPIKRIRIGEAKRVLQCLLWGPRRELVQQPGTSEEALCGTLHNWIDMKRALMMMKFAEKAVDRRRGVELEDWLCCQYLASAEPGALLQSLKLLQLL

These binders were tested against T1, Flag-tagged FL SgK223-WT (assay: co-IP; Flag-tagged FL SgK223 WT co-expressed with HA-tagged FL SgK223 WT or mutants in HEK293 cells; immunoprecipitation with anti-FLAG, blot with anti-HA).

Binder	binding
B1	binds
B2	binds
B3	binds

Source: publication PMC5660093, “Structure of SgK223 pseudokinase reveals novel mechanisms of homotypic and heterotypic association” (Nature Communications, 2017)
